Experimental data reported in publication PMC9065186.
These are yes or no findings as the source states them, for the method shown. Binding seen in cells or lysates may run through a third protein. Some results given as binding are weak or reduced against the parent protein; the word gives no strength. Sequences can lack the tags named with a protein.

Sequences of proteins named here, by UniProt entry; tags and fusion partners are left off.
UniProt O75643: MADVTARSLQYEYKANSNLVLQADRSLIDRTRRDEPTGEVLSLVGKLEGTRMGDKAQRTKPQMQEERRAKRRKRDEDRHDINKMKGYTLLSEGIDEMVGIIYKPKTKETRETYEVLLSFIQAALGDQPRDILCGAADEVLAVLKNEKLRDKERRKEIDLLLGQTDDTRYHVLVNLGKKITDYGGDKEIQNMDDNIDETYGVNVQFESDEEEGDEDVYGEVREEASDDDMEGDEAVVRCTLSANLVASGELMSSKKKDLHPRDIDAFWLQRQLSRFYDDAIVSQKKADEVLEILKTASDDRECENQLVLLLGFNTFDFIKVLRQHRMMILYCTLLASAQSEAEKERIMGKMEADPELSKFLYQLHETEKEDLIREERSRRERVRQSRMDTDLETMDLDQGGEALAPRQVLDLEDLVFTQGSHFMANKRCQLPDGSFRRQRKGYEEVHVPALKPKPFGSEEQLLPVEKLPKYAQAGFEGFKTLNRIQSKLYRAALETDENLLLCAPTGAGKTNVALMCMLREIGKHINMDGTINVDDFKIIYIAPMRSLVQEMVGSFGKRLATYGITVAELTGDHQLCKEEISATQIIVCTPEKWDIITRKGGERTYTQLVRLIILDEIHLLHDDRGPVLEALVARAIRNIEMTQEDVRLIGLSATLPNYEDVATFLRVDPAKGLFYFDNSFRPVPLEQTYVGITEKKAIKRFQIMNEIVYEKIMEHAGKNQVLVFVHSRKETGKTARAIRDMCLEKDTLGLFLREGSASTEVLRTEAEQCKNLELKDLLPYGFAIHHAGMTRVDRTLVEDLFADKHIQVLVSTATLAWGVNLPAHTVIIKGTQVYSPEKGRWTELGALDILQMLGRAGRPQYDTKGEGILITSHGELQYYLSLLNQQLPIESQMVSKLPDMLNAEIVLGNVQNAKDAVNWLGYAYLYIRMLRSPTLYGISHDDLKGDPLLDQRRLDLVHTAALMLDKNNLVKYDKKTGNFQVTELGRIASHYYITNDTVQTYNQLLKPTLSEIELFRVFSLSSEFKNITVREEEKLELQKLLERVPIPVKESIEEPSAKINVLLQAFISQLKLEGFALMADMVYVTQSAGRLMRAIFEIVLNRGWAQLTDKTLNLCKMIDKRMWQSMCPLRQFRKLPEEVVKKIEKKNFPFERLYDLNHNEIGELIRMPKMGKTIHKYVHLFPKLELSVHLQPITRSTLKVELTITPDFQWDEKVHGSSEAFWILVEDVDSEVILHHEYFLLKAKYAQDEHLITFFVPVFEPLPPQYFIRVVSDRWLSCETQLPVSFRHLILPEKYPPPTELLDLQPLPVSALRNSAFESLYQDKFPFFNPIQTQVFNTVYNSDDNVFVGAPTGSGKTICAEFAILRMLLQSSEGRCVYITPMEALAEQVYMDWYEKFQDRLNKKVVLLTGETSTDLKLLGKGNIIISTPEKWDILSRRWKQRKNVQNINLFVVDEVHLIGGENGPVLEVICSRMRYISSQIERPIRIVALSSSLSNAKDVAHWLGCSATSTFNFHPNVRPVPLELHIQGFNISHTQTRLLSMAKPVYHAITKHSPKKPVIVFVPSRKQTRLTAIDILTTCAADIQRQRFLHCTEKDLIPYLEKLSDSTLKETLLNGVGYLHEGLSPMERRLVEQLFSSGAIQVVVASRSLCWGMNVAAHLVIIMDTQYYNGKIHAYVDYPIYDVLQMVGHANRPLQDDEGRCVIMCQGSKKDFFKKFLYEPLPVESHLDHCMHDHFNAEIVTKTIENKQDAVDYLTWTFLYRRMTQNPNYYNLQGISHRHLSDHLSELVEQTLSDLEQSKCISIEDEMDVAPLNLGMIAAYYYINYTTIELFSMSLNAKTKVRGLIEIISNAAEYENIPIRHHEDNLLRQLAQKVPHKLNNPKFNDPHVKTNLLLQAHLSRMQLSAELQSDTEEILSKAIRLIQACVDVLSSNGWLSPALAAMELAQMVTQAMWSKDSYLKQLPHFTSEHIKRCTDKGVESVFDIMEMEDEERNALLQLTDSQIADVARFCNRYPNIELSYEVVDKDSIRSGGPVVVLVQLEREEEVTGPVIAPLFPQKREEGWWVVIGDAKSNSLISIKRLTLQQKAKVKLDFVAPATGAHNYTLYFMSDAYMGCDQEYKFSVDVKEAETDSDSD

Key:
GFP-NONO [1] = target: T1, GFP-NONO (UniProt Q15233); assay: co-IP; GFP-NONO co-IP from extracts of SNU423 cells; cells untreated, or treated with 100 nM rapamycin after NEAT1_2 knockdown
T1 sequence: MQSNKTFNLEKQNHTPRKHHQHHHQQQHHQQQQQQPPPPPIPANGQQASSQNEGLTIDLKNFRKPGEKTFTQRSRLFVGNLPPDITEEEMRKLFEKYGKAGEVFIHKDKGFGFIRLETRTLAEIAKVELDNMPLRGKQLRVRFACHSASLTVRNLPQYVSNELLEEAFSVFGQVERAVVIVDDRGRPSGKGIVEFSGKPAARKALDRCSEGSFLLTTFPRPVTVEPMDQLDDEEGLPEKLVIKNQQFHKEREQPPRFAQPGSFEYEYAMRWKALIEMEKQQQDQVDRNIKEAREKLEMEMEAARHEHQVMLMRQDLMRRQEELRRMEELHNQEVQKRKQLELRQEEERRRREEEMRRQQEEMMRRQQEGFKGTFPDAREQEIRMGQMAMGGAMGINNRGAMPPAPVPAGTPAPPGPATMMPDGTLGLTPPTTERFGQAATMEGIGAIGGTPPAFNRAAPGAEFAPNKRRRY

GFP-NONO [2] = target: T1, GFP-NONO; assay: condition: only cells treated with 100 nM rapamycin, without NEAT1_2 knockdown; co-IP; GFP-NONO co-IP from extracts of SNU423 cells treated with 100 nM rapamycin, without NEAT1_2 knockdown

BRR2 (from UniProt O75643 1-2136)
binding (GFP-NONO [1]): binds
binding (GFP-NONO [2]): no binding

B1: PRPF6 (protein, UniProt O94906 1-941)
chain: MNKKKKPFLGMPAPLGYVPGLGRGATGFTTRSDIGPARDANDPVDDRHAPPGKRTVGDQMKKNQAADDDDEDLNDTNYDEFNGYAGSLFSSGPYEKDDEEADAIYAALDKRMDERRKERREQREKEEIEKYRMERPKIQQQFSDLKRKLAEVTEEEWLSIPEVGDARNKRQRNPRYEKLTPVPDSFFAKHLQTGENHTSVDPRQTQFGGLNTPYPGGLNTPYPGGMTPGLMTPGTGELDMRKIGQARNTLMDMRLSQVSDSVSGQTVVDPKGYLTDLNSMIPTHGGDINDIKKARLLLKSVRETNPHHPPAWIASARLEEVTGKLQVARNLIMKGTEMCPKSEDVWLEAARLQPGDTAKAVVAQAVRHLPQSVRIYIRAAELETDIRAKKRVLRKALEHVPNSVRLWKAAVELEEPEDARIMLSRAVECCPTSVELWLALARLETYENARKVLNKARENIPTDRHIWITAAKLEEANGNTQMVEKIIDRAITSLRANGVEINREQWIQDAEECDRAGSVATCQAVMRAVIGIGIEEEDRKHTWMEDADSCVAHNALECARAIYAYALQVFPSKKSVWLRAAYFEKNHGTRESLEALLQRAVAHCPKAEVLWLMGAKSKWLAGDVPAARSILALAFQANPNSEEIWLAAVKLESENDEYERARRLLAKARSSAPTARVFMKSVKLEWVQDNIRAAQDLCEEALRHYEDFPKLWMMKGQIEEQKEMMEKAREAYNQGLKKCPHSTPLWLLLSRLEEKIGQLTRARAILEKSRLKNPKNPGLWLESVRLEYRAGLKNIANTLMAKALQECPNSGILWSEAIFLEARPQRRTKSVDALKKCEHDPHVLLAVAKLFWSQRKITKAREWFHRTVKIDSDLGDAWAFFYKFELQHGTEEQQEEVRKRCESAEPRHGELWCAVSKDIANWQKKIGDILRLVAGRIKNTF
binding (GFP-NONO [1]): binds
binding (GFP-NONO [2]): no binding
